Library screening results

The values are deposited in ChEMBL (CHEMBL3988442, “University of Dundee, Small-Polar-MMV Screening Library” (2021)).

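Viability assay of Plasmodium falciparum sporozoites; the read-out is not stated. The concentration is filed as 10 mM, unlikely as a test dose, so the dose is not known. Direction is inferred from retests: higher values go with lower viability. Strong results were mostly tested again. Size under these conditions: about 34,000 compounds, about 280 of them at 50% or above in at least one test.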

The filed quantity is “Percent Effect” (%).
The controls that fix the scale are not given in the record; negative values are as filed.
This is an unselected part of the compounds tested.

SMILES	Percent Effect
Cc1noc(C)c1C(=O)N1CCCC(c2nccn2Cc2cscn2)C1 (stereo not shown)	1.842%
Cc1nc(CN2CCCC(NCc3nc4ccccc4s3)C2)no1 (stereo not shown)	12.82%
CC(=O)Nc1nc(C(=O)NCc2ccc(N3CCOCC3)nc2)cs1	6.191%
O=C(NCC1(O)CCC1)c1c(O)cc(F)cc1F	1.923%
Cc1nc(C2CCCN2Cc2ccon2)no1 (stereo not shown)	3.199%
O=C(O)C(F)(F)F.[H][C@@]12CN(C(=O)c3occc3C)C[C@@]1([H])N(Cc1cccnc1)C(=O)CO2	4.581%
CC(C)N(C)CC(=O)NCC(O)c1cc2ccccc2s1 (stereo not shown)	-4.135%
Cc1nc(C)n(C2CCCN(C(=O)c3ccc(F)c(F)c3)C2)n1 (stereo not shown)	-10.63%
COCCc1ncc(CNC2(c3ccc(Cl)cc3)CC2)cn1	5.087%
[H][C@]12CC[C@]([H])(CN(C(=O)C3CCC3)C1)N(C(=O)c1cccc(OCC)c1)C2	-0.614%
Cc1cccc(OCCC(=O)N(C)CC(C)C#N)c1C (stereo not shown)	14.8%
O=C(NCCc1nnc2n1CCC2)NC1(c2cccc(F)c2)CC1	-3.946%
CCN(CC)C(=O)CCNC(=O)N1CCC(c2ccccc2)C1 (stereo not shown)	-3.176%
NC(=O)c1csc(N2CCCC(c3nc4ccccc4[nH]3)C2)n1 (stereo not shown)	-4.236%
C/C(=C\c1ccco1)CN(C)C(C)Cc1cc(C)ccn1 (stereo not shown)	4.71%
Cc1ccc(CN2CCC3(CC2)CC(CC(=O)NC(C)C)CO3)s1.O=C(O)C(F)(F)F (stereo not shown)	9.386%
CCOc1ccc(C(C)NC(=O)N2CCC(C(N)=O)CC2)cc1OC (stereo not shown)	-2.941%
O=C(c1cscn1)N1CCc2ncc(CN3CCOCC3)n2CC1	5.241%
O=C(CCCc1ncc(-c2ccccc2)o1)N1CCN(CCO)CC1	6.661%
COc1ccccc1CN(Cc1nc(CC(C)C)no1)C1CC1	-1.432%
Cc1nc(C)n(CC2CCCN2Cc2cscn2)n1 (stereo not shown)	-16.42%
Cc1csc2c(N3CCC(NCCCc4cnn(C)c4)CC3)ncnc12	-1.316%
COc1nc(C)ccc1CNC(=O)NC(C)Cc1c(C)nn(C)c1C (stereo not shown)	-18.99%
COc1ccc(-c2nc(CN3CC(n4nc(C)cc4C)C3)no2)cc1	-0.8724%
O=C(O)C(F)(F)F.O=C(O)C(F)(F)F.[H][C@@]12CN(Cc3cc[nH]n3)C[C@]1([H])OCCN2CCOC	11.48%
Cc1ccc(CNC(=O)Cc2c(C)nc3c(c2C)c(=O)[nH]n3C)cc1	-5.612%
O=C(CCn1cccn1)N1CCN(CC(F)F)CC1	-7.101%
Cc1ccccc1CNC(=O)N1CCC(n2cncn2)CC1	0.4214%
COc1ccc(C(=O)N2CCC3(CC2)c2ccccc2[C@@H](N)[C@@H]3O)cc1	-5.644%
O=C(NCCOc1ccc(F)c(F)c1)NCc1ccncc1	0.5882%
Oc1nc(N2CCCC2)nc2c1CCN(Cc1ccsc1)CC2	1.215%
CC(C)Cc1cc(NC(=O)c2ccccc2)n(C)n1	-11.65%
CCOc1ccc2c(c1)CN(Cc1nc3c(cnn3C)c(=O)[nH]1)CC2	12.58%
CC(C)C(=O)NCCc1cc2nc(-c3ccncc3)ccn2n1	7.156%
CC(C)CC(=O)N(C)CC(=O)Nc1ccc(Br)cn1	8.544%
Cn1ccnc1CN1CCC2(CC1)CN(CC1CC1)C(=O)CO2	-15.31%
Cc1csc(C2CCCCN2C(=O)c2cc(C(C)C)[nH]n2)n1 (stereo not shown)	4.398%
CCn1ncc2c1CN(C(=O)Cc1ccccn1)CC2COC.O=C(O)C(F)(F)F.O=C(O)C(F)(F)F (stereo not shown)	-5.122%
COc1cc(CN(C)C(=O)NCCC(=O)NC2CCCC2)ccc1SC	2.012%
CCc1ncc(CN(C)C(=O)Nc2cccnc2N2CCCC2)s1	-6.438%
Cc1noc(Cl)c1CCC(=O)N1CCN(c2ncccn2)CC1	-2.2%
Cc1nnc(NC(=O)NCc2ccc(N3CCOCC3)nc2)s1	-68.09%
OC1CCCN(Cc2c(-c3ccco3)[nH]c3ncccc23)C1 (stereo not shown)	-6.517%
CCN1Cc2c(C(=O)NCC3CC3)ncn2-c2ccccc2S1(=O)=O	5.332%
[H][C@@]12CC(=O)N(CC)[C@@]1([H])CCN2S(=O)(=O)c1ccccc1	13%
N#Cc1cc(S(N)(=O)=O)ccc1N1CCc2c(Cl)cccc2C1	3.028%
COCCCNc1ncnc2c1CCN(C(=O)CC1C=CCC1)CC2 (stereo not shown)	-3.374%
COCCNC(=O)NC(C)COc1ccc(F)cc1F (stereo not shown)	-1.88%
O=C(Cc1ccccc1F)N1CCN(C(=O)c2cccc(F)c2)CC1	9.132%
CCOCCNC(=O)c1cccnc1N1CCCC1c1ccccn1 (stereo not shown)	0.502%

The last 4 entries again:

For COCCCNc1ncnc2c1CCN(C(=O)CC1C=CCC1)CC2 (stereo not shown) the result was -3.374%.
For COCCNC(=O)NC(C)COc1ccc(F)cc1F (stereo not shown) the result was -1.88%.
For O=C(Cc1ccccc1F)N1CCN(C(=O)c2cccc(F)c2)CC1 the result was 9.132%.
For CCOCCNC(=O)c1cccnc1N1CCCC1c1ccccn1 (stereo not shown) the result was 0.502%.